Reference: PubChem BioAssay AID1224830 (NIAID, 2016)
The whole screen tested about 18,000 reagents; below is a part drawn at random. About 2,900 of them (16%) count as active. 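Calls are made per well; low scores hint the gene aids the LPS response, high scores that it dampens it.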 A number with no mark means an inactive call. Repeated entries: four replicate wells of each siRNA pool. No sequences are given here.

Purpose: 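Regulators of TLR4 signalling towards TNF-alpha in macrophage-like cells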 (primary screen)
Cell system: human THP-1 monocytic leukaemia cells, TNF dual-luciferase reporter clone, PMA-differentiated to macrophage-like cells
Knock-down reagent: siRNA pool against human genes, 50 nM
Duration: LPS for 4 h, given about 3 days after siRNA transfection
Treatment: bacterial LPS (TLR4 ligand), 10 ng/ml
Measurement: 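TNF firefly reporter luminescence divided by renilla, normalised to the plate median, then turned into a robust z-score for each replicate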
Direction: TNF reporter robust z-score: higher = stronger TNF reporter response to LPS
Rule for the call: 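Each well counts as active if its z-score is over 2.8 or under -1.5; controls are left without a call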

| TNF reporter robust z-score | gene symbol |
| --- | --- |
| 0.41 | ANGPTL5 (GeneID 253935) |
| 0.42 | ANGPTL5 (GeneID 253935) |
| -0.24 | ANGPTL5 (GeneID 253935) |
| -0.01 | ANGPTL5 (GeneID 253935) |
| 0.91 | YY2 (GeneID 404281) |
| 0.68 | YY2 (GeneID 404281) |
| 0.47 | YY2 (GeneID 404281) |
| 1.62 | YY2 (GeneID 404281) |
| -0.17 | SPEG (GeneID 10290) |
| 0.11 | SPEG (GeneID 10290) |
| -0.29 | SPEG (GeneID 10290) |
| -1.41 | SPEG (GeneID 10290) |
| -0.01 | RBAKDN (GeneID 389458) |
| 0.9 | RBAKDN (GeneID 389458) |
| -0.83 | RBAKDN (GeneID 389458) |
| -1.14 | RBAKDN (GeneID 389458) |
| -1.45 | NCSTN (GeneID 23385) |
| -0.83 | NCSTN (GeneID 23385) |
| -1.32 | NCSTN (GeneID 23385) |
| -1.08 | NCSTN (GeneID 23385) |
| 0.68 | CPVL (GeneID 54504) |
| 0.63 | CPVL (GeneID 54504) |
| -0.31 | CPVL (GeneID 54504) |
| -0.07 | CPVL (GeneID 54504) |
| -1.03 | PRNP (GeneID 5621) |
| -0.93 | PRNP (GeneID 5621) |
| -0.75 | PRNP (GeneID 5621) |
| 2.67 | PRNP (GeneID 5621) |
| -0.67 | DDX1 (GeneID 1653) |
| -0.09 | DDX1 (GeneID 1653) |
| -0.05 | DDX1 (GeneID 1653) |
| -0.51 | DDX1 (GeneID 1653) |
| 0.08 | RABGAP1 (GeneID 23637) |
| -0.33 | RABGAP1 (GeneID 23637) |
| 0.72 | RABGAP1 (GeneID 23637) |
| 0.57 | RABGAP1 (GeneID 23637) |
| -1.25 | HDHD2 (GeneID 84064) |
| -0.96 | HDHD2 (GeneID 84064) |
| -1.34 | HDHD2 (GeneID 84064) |
| -0.97 | HDHD2 (GeneID 84064) |
| -0.39 | USP26 (GeneID 83844) |
| -0.61 | USP26 (GeneID 83844) |
| 0.95 | USP26 (GeneID 83844) |
| 2 | USP26 (GeneID 83844) |
| -0.23 | SULT2B1 (GeneID 6820) |
| -0.46 | SULT2B1 (GeneID 6820) |
| -0.13 | SULT2B1 (GeneID 6820) |
| 0.82 | SULT2B1 (GeneID 6820) |
| 0.03 | RIC1 (GeneID 57589) |
| -0.88 | RIC1 (GeneID 57589) |
| -0.55 | RIC1 (GeneID 57589) |
| -0.24 | RIC1 (GeneID 57589) |
| -0.68 | SLC16A4 (GeneID 9122) |
| -0.99 | SLC16A4 (GeneID 9122) |
| -1.61 (active) | SLC16A4 (GeneID 9122) |
| -1.1 | SLC16A4 (GeneID 9122) |
| -0.88 | ZFYVE28 (GeneID 57732) |
| -0.99 | ZFYVE28 (GeneID 57732) |
| -1.17 | ZFYVE28 (GeneID 57732) |
| -0.93 | ZFYVE28 (GeneID 57732) |
| -0.74 | AMOTL1 (GeneID 154810) |
| -0.4 | AMOTL1 (GeneID 154810) |
| -0.41 | AMOTL1 (GeneID 154810) |
| -0.36 | AMOTL1 (GeneID 154810) |
| 0.13 | FCN1 (GeneID 2219) |
| 0.55 | FCN1 (GeneID 2219) |
| -0.27 | FCN1 (GeneID 2219) |
| 0.05 | FCN1 (GeneID 2219) |
| 1.1 | CCNB1IP1 (GeneID 57820) |
| 0.3 | CCNB1IP1 (GeneID 57820) |
| 0.23 | CCNB1IP1 (GeneID 57820) |
| 2.39 | CCNB1IP1 (GeneID 57820) |
| -0.35 | OIT3 (GeneID 170392) |
| -2.25 (active) | OIT3 (GeneID 170392) |
| -0.75 | OIT3 (GeneID 170392) |
| -0.18 | OIT3 (GeneID 170392) |
| 2.11 | OR5T1 (GeneID 390155) |
| 4.41 (active) | OR5T1 (GeneID 390155) |
| 1.22 | OR5T1 (GeneID 390155) |
| -0.02 | OR5T1 (GeneID 390155) |
| -0.89 | DCAF8L1 (GeneID 139425) |
| -0.52 | DCAF8L1 (GeneID 139425) |
| 0.31 | DCAF8L1 (GeneID 139425) |
| 4.21 (active) | HSD3B1 (GeneID 3283) |
| 0.42 | HSD3B1 (GeneID 3283) |
| 0.46 | HSD3B1 (GeneID 3283) |
| 1.14 | HSD3B1 (GeneID 3283) |
| -0.99 | ZNF669 (GeneID 79862) |
| -0.2 | ZNF669 (GeneID 79862) |
| -0.17 | ZNF669 (GeneID 79862) |
| 0.04 | DSCR9 (GeneID 257203) |
| 1.32 | DSCR9 (GeneID 257203) |
| 1.38 | DSCR9 (GeneID 257203) |
| 0.25 | DSCR9 (GeneID 257203) |
| -0.84 | RNF103 (GeneID 7844) |
| 2.16 | RNF103 (GeneID 7844) |
| -0.87 | RNF103 (GeneID 7844) |
| 0.46 | RNF103 (GeneID 7844) |
| -0.89 | SLA2 (GeneID 84174) |
| -0.74 | SLA2 (GeneID 84174) |
| -1.08 | SLA2 (GeneID 84174) |
| -0.77 | SLA2 (GeneID 84174) |
| -1.15 | PKDREJ (GeneID 10343) |
| 0.99 | PKDREJ (GeneID 10343) |
| 0.24 | PKDREJ (GeneID 10343) |
| 1.03 | PKDREJ (GeneID 10343) |
| 0.26 | PDP1 (GeneID 54704) |
| -0.74 | PDP1 (GeneID 54704) |
| 1.05 | PDP1 (GeneID 54704) |
| 2.4 | PDP1 (GeneID 54704) |

Part of the list above in another layout.
TNF reporter robust z-score | gene symbol
0.68 | CPVL (GeneID 54504)
0.63 | CPVL (GeneID 54504)
-0.31 | CPVL (GeneID 54504)
-0.07 | CPVL (GeneID 54504)
-1.03 | PRNP (GeneID 5621)
-0.93 | PRNP (GeneID 5621)
-0.75 | PRNP (GeneID 5621)
2.67 | PRNP (GeneID 5621)
-0.67 | DDX1 (GeneID 1653)
-0.09 | DDX1 (GeneID 1653)
-0.05 | DDX1 (GeneID 1653)
-0.51 | DDX1 (GeneID 1653)
